PubChem BioAssay AID1259254 | NCATS, 2017
Here is an unselected part of about 59,000 reagents. Of all reagents, about 1,550 (2.6%) got an active call. 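G2 share is only a proxy for re-replication; each gene was hit by three separate siRNAs, and active genes were retested.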 The raw values are shown without normalisation. The numbers tell different reagents against one gene apart. The record does not give: the amount of reagent.

Screen: 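Gene knock-downs that lead to re-replication, shown by excess G2 DNA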 (primary screen)
Cells: human HCT116 colorectal cancer cells
Reagent: single siRNA against human genes
Time to read-out: 3 days
Measurement: 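Imaged Hoechst DNA stain sorts each cell into a cycle phase by DNA amount; per plate, G2 fraction set to 0% for non-targeting and 100% for GMNN siRNA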
Reading the numbers: G2 robust z-score and G2 cells, % of GMNN control: higher = more G2 cells, more excess DNA replication; raw share of cells in G2: higher = larger share of cells with G2 DNA content
Call rule: 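Active siRNAs have a G2 robust z of 5 or more median absolute deviations over the median, which in these data means about 38% or higher of GMNN control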

Gene | reagent | G2 robust z-score | G2 cells, % of GMNN control | raw share of cells in G2 (%) | Call
LILRB3 | 1 | -0.961 | -3.8 | 4.05 | inactive
LILRB3 | 2 | -0.342 | 0.563 | 6.7 | inactive
LILRB3 | 3 | -1.34 | -6.47 | 1.75 | inactive
MRPS14 | 1 | 0.0537 | 3.35 | 6.04 | inactive
MRPS14 | 2 | -0.982 | -3.94 | 2.84 | inactive
MRPS14 | 3 | 0.473 | 6.3 | 4.36 | inactive
TLR6 | 1 | -1.04 | -4.32 | 3.82 | inactive
TLR6 | 2 | 0.626 | 7.37 | 6.23 | inactive
TLR6 | 3 | 1.64 | 14.5 | 12.2 | inactive
FZD6 | 1 | -0.136 | 2.01 | 6.56 | inactive
FZD6 | 2 | -0.397 | 0.175 | 4.58 | inactive
FZD6 | 3 | 0.295 | 5.04 | 4.82 | inactive
MLNR | 1 | -0.77 | -2.45 | 3.66 | inactive
MLNR | 2 | 1.18 | 11.2 | 9.86 | inactive
MLNR | 3 | 0.318 | 5.2 | 4.86 | inactive
CD40LG | 1 | -0.462 | -0.286 | 5.17 | inactive
CD40LG | 2 | -0.799 | -2.65 | 3.12 | inactive
CD40LG | 3 | 0.153 | 4.04 | 5.11 | inactive
BTN3A2 | 1 | -0.242 | 1.26 | 4.3 | inactive
BTN3A2 | 2 | -1.02 | -4.23 | 4.67 | inactive
BTN3A2 | 3 | -0.105 | 2.23 | 4.9 | inactive
KIR2DL1 | 1 | -0.0538 | 2.59 | 5.24 | inactive
KIR2DL1 | 2 | -0.388 | 0.235 | 3.44 | inactive
KIR2DL1 | 3 | 2.47 | 20.3 | 13.6 | inactive
SART1 | 1 | 1.71 | 15 | 11.8 | inactive
SART1 | 2 | 0.338 | 5.34 | 6.01 | inactive
SART1 | 3 | 0.0413 | 3.26 | 4.5 | inactive
TMC1 | 1 | 0.583 | 7.07 | 6.92 | inactive
TMC1 | 2 | -0.721 | -2.11 | 2.7 | inactive
TMC1 | 3 | 0.211 | 4.45 | 3.12 | inactive
SRPK2 | 1 | -1.03 | -4.25 | 4.2 | inactive
SRPK2 | 2 | -0.578 | -1.1 | 5.04 | inactive
SRPK2 | 3 | -0.373 | 0.344 | 4.15 | inactive
CYP21A2 | 1 | -0.00434 | 2.94 | 6.07 | inactive
CYP21A2 | 2 | 0.943 | 9.6 | 7.4 | inactive
CYP21A2 | 3 | -0.211 | 1.48 | 5.49 | inactive
STATH | 1 | 1.32 | 12.2 | 10.6 | inactive
STATH | 2 | -0.702 | -1.97 | 3.11 | inactive
STATH | 3 | -0.278 | 1.01 | 3.7 | inactive
BPY2 | 1 | -0.17 | 1.77 | 5.92 | inactive
BPY2 | 2 | -0.599 | -1.25 | 3.4 | inactive
BPY2 | 3 | 0.977 | 9.84 | 6.83 | inactive
SGCB | 1 | -0.333 | 0.627 | 5.24 | inactive
SGCB | 2 | -0.784 | -2.55 | 3.21 | inactive
SGCB | 3 | 0.425 | 5.96 | 5.51 | inactive
ARL6IP4 | 1 | 0.275 | 4.9 | 4.81 | inactive
ARL6IP4 | 2 | 0.284 | 4.97 | 5.38 | inactive
ARL6IP4 | 3 | -0.306 | 0.814 | 4.61 | inactive
OR8K5 | 1 | 1.67 | 14.7 | 8.92 | inactive
OR8K5 | 2 | 1.56 | 13.9 | 7.91 | inactive
OR8K5 | 3 | 4.1 | 31.8 | 13.3 | inactive
SAR1A | 1 | -1.05 | -4.42 | 4.49 | inactive
SAR1A | 2 | 2.6 | 21.2 | 12 | inactive
SAR1A | 3 | -0.214 | 1.46 | 4.94 | inactive
COA8 | 1 | 1.31 | 12.2 | 8.17 | inactive
COA8 | 2 | -0.0432 | 2.66 | 4.25 | inactive
COA8 | 3 | -0.116 | 2.15 | 3.06 | inactive
CCDC171 | 1 | 0.755 | 8.28 | 6.58 | inactive
CCDC171 | 2 | -0.875 | -3.19 | 2.04 | inactive
CCDC171 | 3 | -0.545 | -0.869 | 2.92 | inactive
H4C7 | 1 | 1.77 | 15.4 | 12 | inactive
H4C7 | 2 | 0.156 | 4.07 | 5.51 | inactive
H4C7 | 3 | 1.26 | 11.8 | 7.53 | inactive
ASB16-AS1 | 1 | 2.53 | 20.8 | 11.1 | inactive
ASB16-AS1 | 2 | -0.597 | -1.23 | 2.72 | inactive
ASB16-AS1 | 3 | 0.575 | 7.02 | 7.01 | inactive
HSPB9 | 1 | -0.509 | -0.617 | 3.31 | inactive
HSPB9 | 2 | 0.81 | 8.66 | 6.07 | inactive
HSPB9 | 3 | 2.53 | 20.7 | 10.4 | inactive
